At least one structure is not confirmed: it was looked up by name or label, or the drawing left a doubt. Some entries share one result that the patent states for a list of compounds.
Experiment: Ex vivo release of bioactive agent from poly(DL-lactide) implant matrix, with and without release rate modification agent
Format: physicochemical
From the text: The use of a release rate modification agent may either decrease or increase the release of the bioactive agent in the range of multiple orders of magnitude (e.g., 1 to 10 to 100), preferably up to a ten-fold change, as compared to the release of a bioactive agent from a solid matrix without the release rate modification agent. For example, naltrexone and doxycycline are substantially completely released from a polymer matrix comprised of poly(DL-lactide) within about 2-3 days ex vivo. With the addition of a release rate modification agent such as ethyl heptanoate which is hydrophobic to the polymer solution, and formation of the implant matrix through interaction of the polymer solution and an aqueous medium, the release rate of naltrexone or doxycycline can be slowed to produce substantially complete release of the drug within about seven days. With the inclusion of a greater amount of a release rate modification agent into the polymer solution, the time period of the release can be increased to about fourteen days. Other release rate modification agents which are hydrophilic such as polyethylene glycol may increase the release of the bioactive agent. By an appropriate choice of the polymer molecular weight in combination with an effective amount of the release rate modification agent, the release rate and extent of release of a bioactive agent from the implant matrix may be varied, for example, from relatively fast to relatively slow.

[1] = poly(DL-lactide) matrix, ex vivo, no release rate modification agent

With `C[C@H]1c2cccc(O)c2C(=O)C2=C(O)[C@]3(O)C(=O)C(C(N)=O)=C(O)[C@@H](N(C)C)[C@@H]3[C@@H](O)[C@@H]21` [doxycycline] the “time period of the release” value (poly(DL-lactide) matrix with a greater amount of release rate modification agent) was “about fourteen”, the “time to substantially complete release from polymer matrix” value (from here on “time to substantially complete release”) (poly(DL-lactide) matrix with ethyl heptanoate added as release rate modification agent) was “about seven” and the “time to substantially complete release” value [1] was 2 to 3 days.

In the case of `O=C1CC[C@@]2(O)[C@H]3Cc4ccc(O)c5c4[C@@]2(CCN3CC2CC2)[C@H]1O5` [naltrexone], the “time to substantially complete release” value [1] is reported as 2 to 3 days.

— patent publication US6395293B2, “Biodegradable implant precursor” (Atrix Laboratories, priority 1989, dated 2002)
